Measured values from patent publication US20230235004A1.
Numbering of substitutions follows the chain as printed. No constants are given. Whether binding was seen depends on the method and setting. Binding calls can cover weak binding; strength is not graded here.

B1: MAdCAM Antibody Table 2 clone 6 (antibody, V domains shown)
VH: EVQLLESGGGLVQPGGSLRLSCAASGFTFNNYAFHWVRQAPGKGLEWVSRINSYGTSTTYADSVKGRFTISRDNSKNTLYLQMNSLRAEDTAVYYCAREGPVAGYWYFDLWGQGTLVTVSS
VL: DIQMTQSPSSLSASVGDRVTITCRASQIIGTNLAWYQQKPGKAPKLLIYGASSLQSGVPSRFSGSGSGTDFTLTISSLQPEDFATYYCQQSYRLPFTFGQGTKVEIK
B2: MAdCAM Antibody Table 2 clone 75 (antibody, V domains shown)
VH: EVQLLESGGGLVQPGGSLRLSCAASGFTFSDFWMHWVRQAPGKGLEWISYISGDSGYTNYADSVKGRFTISRDNSKNTLYLQMNSLRAEDTAVYYCARDRPYYYYMDVWGKGTTVTVSS
VL: DIQMTQSPSSLSASVGDRVTITCRASQSVSRSLAWYQQKPGKAPKLLIYAASSLQSGVPSRFSGSGSGTDFTLTISSLQPEDFATYYCQQYKSYPVTFGQGTKVEIK
B3: MAdCAM Antibody Table 2 clone 14 (antibody, V domains shown)
VH: QVQLVQSGAEVKKPGSSVKVSCKASGYTFTNYYMHWVRQAPGQGLEWMGGIIPIVDGVKYAQKFQGRVTITADESTSTAYMELSSLRSEDTAVYYCAKGQFTGNYYYGMDYWGQGTLVTVSS
VL: DIQMTQSPSSLSASVGDRVTITCQANQDISNYLNWYQQKPGKAPKLLIYRASKLEAGVPSRFSGSGSGTDFTLTISSLQPEDFATYYCQQSSEIPYSFGQGTKVEIK
B4: MAdCAM Antibody Table 2 clone 24 (antibody, V domains shown)
VH: EVQLVESGGGLVKPGGSLRLSCAASGFTFSSYWMSWVRQAPGKGLEWVSRISSDGRITTYAAPVKGRFTISRDDSKNTLYLQMNSLKTEDTAVYYCARGTSYCTGGVCDIDYWGQGTLVTVSS
VL: B1 VL with I28S, T31R, A34N, G50S, S53N, R93S, L94I, F96L, Q100P, E105D

Legend:
[1] = target: cyno MAdCAM protein (cyno); test: ELISA
[2] = target: cyno MAdCAM protein (cyno); test: Octet

| Binder | binding [1] | binding [2] |
| --- | --- | --- |
| B1 | binds | binds |
| B2 | binds | binds |
| B3 | – | no binding |
| B4 | – | no binding |
